Some of the results follow.
Biological target: OsWRKY34 (Oryza sativa, UniProt Q0JBA9 1-250)
Assay: protein-binding microarray (RPBM); PBS, 2% BSA, 51.3 ng/ul salmon testes DNA, 50 uM zinc acetate, 200 nM TF, 25 C, 1 h; high values mean tight binding
Conditions: protein: recombinant; tags: N-terminal polyhistidine and DsRed monomer fusion (pET32a); label: CyDye5-dUTP incorporated in the synthesized complementary strand; 3' TTTTT single-stranded linker to array surface; dsDNA, one strand shown
In short: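 Binding signal is reported as fluorescence intensity per feature (arbitrary units) from an Axon 4000B scanner. Incubation used 200 nM of each Ni–NTA-purified, N-terminally polyhistidine- and DsRed-fused transcription factor from E. coli BL21-CodonPlus on a double-stranded custom Agilent array for 1 h at 25 °C, with 50 µM zinc acetate in the buffer, followed by washing.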

By UniProt entry, the sequences of proteins in these tests, tags left out.
UniProt Q0JBA9, entry or part of it: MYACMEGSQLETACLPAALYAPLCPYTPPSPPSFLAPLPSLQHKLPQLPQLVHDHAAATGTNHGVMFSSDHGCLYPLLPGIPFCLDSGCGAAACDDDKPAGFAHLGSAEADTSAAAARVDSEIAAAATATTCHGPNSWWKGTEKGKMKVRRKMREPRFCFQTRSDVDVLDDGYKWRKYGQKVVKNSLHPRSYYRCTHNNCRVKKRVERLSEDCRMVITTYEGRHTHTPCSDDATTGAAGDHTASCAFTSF

Sequence	binding signal
AGTTCAGAAAGTGTGCCCGCAATAATTCCGTGACTATAATCGGAGTCACCTAGTGCAG	8420 fluorescence intensity (a.u.)
TCCGCCGCCGCCCGCCGCCGCCGCCGCCGCCTACACAACCCGGAGTCACCTAGTGCAG	10500 fluorescence intensity (a.u.)
TATATATATATATATATATGATATGTAGGACCAATTATCACGGAGTCACCTAGTGCAG	10400 fluorescence intensity (a.u.)
CGCTCAATTCCGCTTTAATTTGGTGACTTGGCGATCGATCCGGAGTCACCTAGTGCAG	8100 fluorescence intensity (a.u.)
TCCTTGGAGGTCTCGCGCGATGTGCTCTCTCTTAAAAACTCGGAGTCACCTAGTGCAG	8370 fluorescence intensity (a.u.)
ACCAGCTGCATTACTTGTATCAATATTTACAGAACCAACTCGGAGTCACCTAGTGCAG	9430 fluorescence intensity (a.u.)
GTGGCCAAAATAATATAATCTTCACCGTCATCGATCCATTCGGAGTCACCTAGTGCAG	8280 fluorescence intensity (a.u.)
GTTTTAGGGTATTTTCTGACCGTTTTCATCCGTTATCGACCGGAGTCACCTAGTGCAG	10900 fluorescence intensity (a.u.)
CAGAAGCAACTCTCCCGTGTTAAACTAATTATTCTGTTGTCGGAGTCACCTAGTGCAG	9440 fluorescence intensity (a.u.)
TGATCTTTTTAGTTTTACGTTTTTTCCTTTCCACAACAAACGGAGTCACCTAGTGCAG	9200 fluorescence intensity (a.u.)
ATTGTTTTTGTGTTACCCAATATTAAATCTGTTGTAGCCTCGGAGTCACCTAGTGCAG	10600 fluorescence intensity (a.u.)
GTTTATTGTAGCACCACATTGTCAATCATGGAGTAATTAGCGGAGTCACCTAGTGCAG	8720 fluorescence intensity (a.u.)
ATAATAACCTAGTATGTTCTTCTCGTGTTTTATGCTTAACCGGAGTCACCTAGTGCAG	9660 fluorescence intensity (a.u.)
TAGTATACATACGGCTACCTGCCTATCTGTATCACACCACCGGAGTCACCTAGTGCAG	8290 fluorescence intensity (a.u.)
TCGCCGTCCGCCTCATCGAGCTTGATCGCTGCTACAACACCGGAGTCACCTAGTGCAG	9180 fluorescence intensity (a.u.)
AGATTAGGCCATCACCAATGCGTACCTTTGACCCGTGCCCCGGAGTCACCTAGTGCAG	8160 fluorescence intensity (a.u.)
TGTCGTTGGGAATTTTGTTGTGATGGAAGACTCGCTGGTTCGGAGTCACCTAGTGCAG	9670 fluorescence intensity (a.u.)
CAACTTTTTTTCAAACTTCCAACTTTCTTCAAACTTTCAACGGAGTCACCTAGTGCAG	8060 fluorescence intensity (a.u.)
AAGTAATTCAATCGAGCGCAATCGTTAACAGTAATTCTTTCGGAGTCACCTAGTGCAG	9350 fluorescence intensity (a.u.)
GTACACTTGTATTTTTGCCACGCTGTTTCTTATTCATCGTCGGAGTCACCTAGTGCAG	10300 fluorescence intensity (a.u.)
CCTCTATTTCATATTATACGTCGTTGACTTTTTTCTTAGTCGGAGTCACCTAGTGCAG	17400 fluorescence intensity (a.u.)

Part of the list above in another layout:
Sequence,binding signal
AGTTCAGAAAGTGTGCCCGCAATAATTCCGTGACTATAATCGGAGTCACCTAGTGCAG,8420 fluorescence intensity (a.u.)
TCCGCCGCCGCCCGCCGCCGCCGCCGCCGCCTACACAACCCGGAGTCACCTAGTGCAG,10500 fluorescence intensity (a.u.)
TATATATATATATATATATGATATGTAGGACCAATTATCACGGAGTCACCTAGTGCAG,10400 fluorescence intensity (a.u.)
CGCTCAATTCCGCTTTAATTTGGTGACTTGGCGATCGATCCGGAGTCACCTAGTGCAG,8100 fluorescence intensity (a.u.)
GTTTTAGGGTATTTTCTGACCGTTTTCATCCGTTATCGACCGGAGTCACCTAGTGCAG,10900 fluorescence intensity (a.u.)
CAGAAGCAACTCTCCCGTGTTAAACTAATTATTCTGTTGTCGGAGTCACCTAGTGCAG,9440 fluorescence intensity (a.u.)
GTTTATTGTAGCACCACATTGTCAATCATGGAGTAATTAGCGGAGTCACCTAGTGCAG,8720 fluorescence intensity (a.u.)
ATAATAACCTAGTATGTTCTTCTCGTGTTTTATGCTTAACCGGAGTCACCTAGTGCAG,9660 fluorescence intensity (a.u.)
AGATTAGGCCATCACCAATGCGTACCTTTGACCCGTGCCCCGGAGTCACCTAGTGCAG,8160 fluorescence intensity (a.u.)
CAACTTTTTTTCAAACTTCCAACTTTCTTCAAACTTTCAACGGAGTCACCTAGTGCAG,8060 fluorescence intensity (a.u.)
AAGTAATTCAATCGAGCGCAATCGTTAACAGTAATTCTTTCGGAGTCACCTAGTGCAG,9350 fluorescence intensity (a.u.)

Following part:

Sequence	binding signal
CTCCCCTGTCGCCCGCCGCCGCATTCCCACCTTCCGTCGTCGGAGTCACCTAGTGCAG	8090 fluorescence intensity (a.u.)
TTTCCTGTTGCACACGCATGGCCATTTTCAATTGTTCAAACGGAGTCACCTAGTGCAG	14900 fluorescence intensity (a.u.)
GAGTATTTTCTCCTTTTCTGTTGACCCTGCCTACTCCTACCGGAGTCACCTAGTGCAG	15900 fluorescence intensity (a.u.)
ATTTATTAGTTTGATCCCTCTTTTATCACCATGTATTGCCCGGAGTCACCTAGTGCAG	8570 fluorescence intensity (a.u.)
TCCCGTCCCGTTCCGCTCCAGCGCCTGCGCCGATCTCCATCGGAGTCACCTAGTGCAG	9620 fluorescence intensity (a.u.)
AGGTGGGTGGTGGTGGTGCGAGGAGAGGGCGTTGATGAGGCGGAGTCACCTAGTGCAG	12000 fluorescence intensity (a.u.)
AATCTGACCTCTTTTTTCTTGCCATTGAAATGTACATGGACGGAGTCACCTAGTGCAG	9150 fluorescence intensity (a.u.)
TCTCTCTTCTGCCATTGTTCTTGCATTTCATCCGGTTCTGCGGAGTCACCTAGTGCAG	8700 fluorescence intensity (a.u.)
TTCGAAGATGCTCATAGGGGTAGGGTTTGCGTGCGTGTGTCGGAGTCACCTAGTGCAG	11700 fluorescence intensity (a.u.)
CCCATGTTTTTTTTTCATATTTTGCAATCTTCGGTTTAAACGGAGTCACCTAGTGCAG	8520 fluorescence intensity (a.u.)
TTTGGCTCCAGTTGACGATCTGATTTCTCACTTTCTTCTGCGGAGTCACCTAGTGCAG	11400 fluorescence intensity (a.u.)
GCCACCAGCCAATCATGCGCCGCTGCCGCCGCCCTGTCGCCGGAGTCACCTAGTGCAG	8100 fluorescence intensity (a.u.)
AGATCATGCTTCTTGTATTTTAGTTGTGGTGGACAAGTTTCGGAGTCACCTAGTGCAG	8330 fluorescence intensity (a.u.)
CTCTATTCTTCAGTTGTATATTCGGAACAGTGAACTTCCGCGGAGTCACCTAGTGCAG	8120 fluorescence intensity (a.u.)
AACCCGAGTAGGTAACTTTTTCGCGCAGGCCCCTCGGAATCGGAGTCACCTAGTGCAG	9400 fluorescence intensity (a.u.)
GCCTAAACAGGGCCTAAACCTCGATGCGTTTTTATCATTTCGGAGTCACCTAGTGCAG	9360 fluorescence intensity (a.u.)
TCCGCGCTACTGCCCTAATCCCGCCGCCGCAGCCGCAGCCCGGAGTCACCTAGTGCAG	10100 fluorescence intensity (a.u.)
ATAATCATCTTTTAGCTGCTGCATGGGGTTTAGGTGTGGACGGAGTCACCTAGTGCAG	8040 fluorescence intensity (a.u.)
CCAACCCAACCCATCCCCTACCTCGCCATCGATGGCGCTGCGGAGTCACCTAGTGCAG	9030 fluorescence intensity (a.u.)
TTGGGTGCGCGTCGATTGATTCATTTGATTGGTAGGTATTCGGAGTCACCTAGTGCAG	8410 fluorescence intensity (a.u.)
AATCCTTCTTTCATTCTTTGTCTTGATTCTTGAAGCATCTCGGAGTCACCTAGTGCAG	10800 fluorescence intensity (a.u.)
